According to publication doi:10.1101/2020.11.17.387910 (bioRxiv, 2020):
Results are given in words; binding and its absence hold for the method and conditions named. Some binding calls cover weakened binding; strength is not graded here.

How the values were obtained:
[1] = target: human P5 (PDIA6), full-length (human) (UniProt Q15084); experiment: SEC
[2] = target: P5 a^0-a (P5 with domain b and the C-terminal extension loop, residue 291-440, deleted) (human) (UniProt Q15084); experiment: SEC
[3] = target: P5 a^0-a (P5 with domain b and the C-terminal extension loop, residue 291-440, deleted) (human) (UniProt Q15084); experiment: SAXS
[4] = target: P5A5 mutant (P5 with V105, L109, L112, V116 and L120 mutated to Ala) (human) (UniProt Q15084); experiment: SEC
[5] = target: P5A5 mutant (P5 with V105, L109, L112, V116 and L120 mutated to Ala) (human) (UniProt Q15084); experiment: SAXS

B1: human P5 (PDIA6), full-length (enzyme, UniProt Q15084 20-440, looked up)
chain: LYSSSDDVIELTPSNFNREVIQSDSLWLVEFYAPWCGHCQRLTPEWKKAATALKDVVKVGAVDADKHHSLGGQYGVQGFPTIKIFGSNKNRPEDYQGGRTGEAIVDAALSALRQLVKDRLGGRSGGYSSGKQGRSDSSSKKDVIELTDDSFDKNVLDSEDVWMVEFYAPWCGHCKNLEPEWAAAASEVKEQTKGKVKLAAVDATVNQVLASRYGIRGFPTIKIFQKGESPVDYDGGRTRSDIVSRALDLFSDNAPPPELLEIINEDIAKRTCEEHQLCVVAVLPHILDTGAAGRNSYLEVLLKLADKYKKKMWGWLWTEAGAQSELETALGIGGFGYPAMAAINARKMKFALLKGSFSEQGINEFLRELSFGRGSTAPVGGGAFPTIVEREPWDGRDGELPVEDDIDLSDVELDDLGKDEL
binding [1]: binds

B2: P5 a^0-a (P5 with domain b and the C-terminal extension loop, residue 291-440, deleted) (domain or fragment, UniProt Q15084 20-290)
chain: LYSSSDDVIELTPSNFNREVIQSDSLWLVEFYAPWCGHCQRLTPEWKKAATALKDVVKVGAVDADKHHSLGGQYGVQGFPTIKIFGSNKNRPEDYQGGRTGEAIVDAALSALRQLVKDRLGGRSGGYSSGKQGRSDSSSKKDVIELTDDSFDKNVLDSEDVWMVEFYAPWCGHCKNLEPEWAAAASEVKEQTKGKVKLAAVDATVNQVLASRYGIRGFPTIKIFQKGESPVDYDGGRTRSDIVSRALDLFSDNAPPPELLEIINEDIAKRT
binding [2]: binds
binding [3]: binds

B3: P5A5 mutant (P5 with V105, L109, L112, V116 and L120 mutated to Ala) (enzyme, UniProt Q15084 20-440)
chain: LYSSSDDVIELTPSNFNREVIQSDSLWLVEFYAPWCGHCQRLTPEWKKAATALKDVVKVGAVDADKHHSLGGQYGVQGFPTIKIFGSNKNRPEDYQGGRTGEAIADAAASAARQLAKDRAGGRSGGYSSGKQGRSDSSSKKDVIELTDDSFDKNVLDSEDVWMVEFYAPWCGHCKNLEPEWAAAASEVKEQTKGKVKLAAVDATVNQVLASRYGIRGFPTIKIFQKGESPVDYDGGRTRSDIVSRALDLFSDNAPPPELLEIINEDIAKRTCEEHQLCVVAVLPHILDTGAAGRNSYLEVLLKLADKYKKKMWGWLWTEAGAQSELETALGIGGFGYPAMAAINARKMKFALLKGSFSEQGINEFLRELSFGRGSTAPVGGGAFPTIVEREPWDGRDGELPVEDDIDLSDVELDDLGKDEL
binding [4]: no binding
binding [5]: no binding
